According to PubChem BioAssay AID540256 (National Center for Advancing Translational Sciences (NCATS), 2011):
Out of some 300,000 compounds screened, about 3,700 (1.2%) were called active. This list was built around the results that the source calls inconclusive (neither active nor inactive); the mix of calls is not that of the screen. Calls come from the whole dose curve; tested in HEK293 cells. Potencies beside an inconclusive call are fits to weak or partial responses and may not hold up.

Assay: qHTS for Inhibitors of binding or entry into cells for Lassa Virus; note: nearly all actives have a fitted effect of over 50% in size
Details: Lassa virus pseudotype entry inhibition, cell reporter; series mostly up to 37.9 µM
Potency is the fitted concentration of half-maximal effect.

Row | Structure (SMILES) | Potency
1 | CN(C)c1nc(C#N)nc(N(C)C)n1 | inconclusive: 3.55 µM [inhibitor, partial curve, poor fit]
2 | Cc1cc2nc(C)n(CCCNC(=O)Nc3ccc(F)cc3)c2cc1C | inconclusive: 29.1 µM [inhibitor, single point]
3 | CCOC(=O)c1c(NC(=O)c2ccc(S(=O)(=O)N(C)C)cc2)sc2c1CCN(C)C2 | inconclusive: 2.82 µM [inhibitor, partial curve, poor fit]
4 | COc1cccc(OCCn2cc(C(=O)c3ccco3)c3ccccc32)c1 | inconclusive: 8.2 µM [inhibitor, partial curve, poor fit]
5 | COc1ccc(-c2cc(=O)c3cc(F)ccc3[nH]2)cc1 | inactive
6 | Cc1ccc(-n2ncc(C(=O)N3CCN(C4CCCCC4)CC3)c2C2CCN(C(=O)OC(C)(C)C)CC2)cc1 | inconclusive: 0.891 µM [inhibitor, partial curve, poor fit]
7 | O=C(NCCN1CCCC1=O)Nc1ccccc1 | inconclusive: 11.2 µM [activator, single point]
8 | CCC(O)(c1ccccc1)C(CN1CCOCC1)c1ccccc1 (centres undefined) | inactive
9 | COc1ccc(Cl)cc1NC(=O)CN1CCC(n2nnc3cc(C)ccc32)CC1 | inconclusive: 10.3 µM [inhibitor, partial curve]
10 | Cc1cccc(-c2nc(-c3ccncc3)no2)c1 | active: 10 µM
11 | O=C(Cn1cccc1C(=O)c1ccccc1)NCc1ccccn1 | inconclusive: 15.8 µM [activator, single point]
12 | CC(C)Cc1nc2oc3c(Cl)ncnc3c2c2c1CCC2 | inconclusive: 32.6 µM [inhibitor, single point]
13 | O=[N+]([O-])c1cc(/C=N/O)ccc1SCc1ccccc1 | inactive
14 | COc1ccc(OCc2nnc(SCC(=O)NCC3CCCO3)n2N)cc1 (centres undefined) | inconclusive: 1.12 µM [inhibitor, partial curve, poor fit]
15 | COc1ccc(CNC(=O)/C=C/c2cc([N+](=O)[O-])ccc2OC(F)F)cc1OC | inactive
16 | CC(C)c1cc(C(=O)Nc2cccc(Cl)c2)no1 | inconclusive: 13 µM [inhibitor, single point]
17 | CCOC(=O)c1[nH]c(C)c(C(=O)Nc2cc(OC)ccc2OC)c1C | inconclusive: 0.461 µM [inhibitor, full curve, poor fit]
18 | C=CCn1c(-c2cccc(OC)c2)nc2nc3ccccc3nc21 | inactive
19 | CCc1ccc(Sc2cc(C(=O)NCCCN3CCCC(C)C3)c3ccccc3n2)cc1 (centres undefined) | inconclusive: 35.5 µM [inhibitor, single point]
20 | COC(=O)c1ccc(N/C=C/C(=O)c2ccccc2)cc1 | inconclusive: 3.16 µM [inhibitor, full curve]
21 | CCOc1cc(/C=C2/C(=N)N3C(=NC2=O)SN=C3S(C)(=O)=O)ccc1OC(=O)c1ccco1 | inconclusive: 7.08 µM [activator, full curve, poor fit]
22 | CCOc1ccc(NC(=O)/C=C/c2ccc(OC)cc2)c([N+](=O)[O-])c1 | inconclusive: 3.98 µM [inhibitor, single point]

Given field by field: part of the list above
CCOc1cc(/C=C2/C(=N)N3C(=NC2=O)SN=C3S(C)(=O)=O)ccc1OC(=O)c1ccco1
  Potency: inconclusive: 7.08 µM [activator, full curve, poor fit]
CCOc1ccc(NC(=O)/C=C/c2ccc(OC)cc2)c([N+](=O)[O-])c1
  Potency: inconclusive: 3.98 µM [inhibitor, single point]

Remaining list, next part:

Row | Structure (SMILES) | Potency
23 | CC(=O)Nc1ccc(S(=O)(=O)n2nc(-c3ccc(C)cc3)nc2N)cc1 | inactive
24 | Nc1c(Cl)cc(NC(=O)c2ccccc2C(=O)O)cc1Br | inconclusive: 15.8 µM [activator, single point]
25 | COC(=O)Cc1c(OC)ccn(CCc2c[nH]c3ccccc23)c1=O | inconclusive: 10 µM [inhibitor, partial curve, poor fit]
26 | COc1ccc(O)c(C(=O)c2cnc3onc(C(C)C)c3c2)c1 | inconclusive: 0.082 µM [activator, partial curve, poor fit]
27 | CNc1cc(Cl)c2nonc2c1[N+](=O)[O-] | inconclusive: 6.31 µM [inhibitor, partial curve, poor fit]
28 | CCOC(=O)CCCNC(=O)CSc1nnc(-c2ccccc2)c(-c2ccccc2)n1 | inconclusive: 7.08 µM [inhibitor, partial curve, poor fit]
29 | OC(COc1ccc(CNCCc2ccccc2F)cc1)CN1CCCCC1 (centres undefined) | inconclusive: 18.3 µM [inhibitor, single point]
30 | COc1ccccc1/C=C/c1nc(C#N)c(NC(C)c2ccccc2)o1 (centres undefined) | inconclusive: 35.5 µM [inhibitor, single point]
31 | CC1CCCN(S(=O)(=O)Cc2ccc(Cl)cc2)C1 (centres undefined) | inconclusive: 25.9 µM [activator, single point]
32 | CCCC(c1nnnn1CS(=O)(=O)c1ccc(C)cc1)N1CCN(c2ccc(F)cc2)CC1 (centres undefined) | inconclusive: 0.92 µM [inhibitor, single point]
33 | Cc1ccc(-c2nsc(NC(=O)c3oc4cc(C)c(Cl)cc4c3C)n2)cc1 | inactive
34 | COc1cccc(NC(=O)CSCC(=O)Nc2ccccc2)c1 | inconclusive: 31.6 µM [inhibitor, partial curve, poor fit]
35 | CCN(CC)c1ccc(NC(=O)c2c(OC)cccc2OC)c(C)c1 | inactive
36 | O=C(NCC(=O)N1CCN(C(c2ccccc2)c2ccccc2)CC1)c1ccc(Br)o1 | inconclusive: 10 µM [inhibitor, partial curve]
37 | CC1=Nc2ccccc2/C1=C\c1nc(-c2ccccc2)oc1O | inactive
38 | O=c1oc2cc(OCc3ccc([N+](=O)[O-])cc3)ccc2c2c1CCCC2 | inconclusive: 18.3 µM [inhibitor, partial curve, poor fit]
39 | O=C(/C=C/c1cccc(C(F)(F)F)c1)OCC(=O)N1CCN(c2ccccc2)CC1 | inactive
40 | COc1ccccc1CP(=O)(c1ccccc1)c1ccccc1 | inactive
41 | COc1ccc(OC)c(NC(=S)NCc2ccco2)c1 | inactive
42 | Cc1ccc(OCCCN2CCOCC2)cc1 | inactive
43 | CCCCn1c(O)c(C(CC)=NCc2ccco2)c(=O)[nH]c1=O | inconclusive: 9.2 µM [inhibitor, partial curve, poor fit]
44 | CCOC(=O)N1CCC(NC(=O)c2cnn(-c3cccc(C)c3)c2C2CCN(C(=O)OC(C)(C)C)CC2)CC1 | inactive
